Where two headings read alike, the source gives them in different places. At least one structure is not confirmed: it was looked up by name or label, or the drawing left a doubt.
Assays:
[1] = test system: ribosomal S6 protein phosphorylated at Ser-235/236; test: Phospho-S6 immunohistochemistry of lung sections; set-up: species or system DBA/2J mice; details: mouse, in vivo
IAV = details: pharmacological intervention, background statement; cited from earlier work
rat AECII = type: cell-based, Sprague-Dawley rats; details: 2.5 μM BGJ398 or 40 nM rapamycin 30 min before IAV ± KGF 50 ng/mL
IL-6, TNFα, KC, MCP-1 = type: in vivo; details: rapamycin pretreatment, whole-lung homogenates 48 h after infection
AECII = test: Flow cytometry of dispersed lung cells (pro SP-C, Ki67, IAV-NP) after in vivo treatment; set-up: species or system DBA/2J mice; details: rapamycin 1 mg/kg i.p. 4 d before KGF, 48 h after KGF

CO[C@H]1C[C@@H]2CC[C@@H](C)[C@@](O)(O2)C(=O)C(=O)N2CCCC[C@H]2C(=O)O[C@H]([C@H](C)C[C@@H]2CC[C@@H](O)[C@H](OC)C2)CC(=O)[C@H](C)/C=C(\C)[C@@H](O)[C@@H](OC)C(=O)[C@H](C)C[C@H](C)/C=C/C=C/C=C/1C [rapamycin, reference compound]
phospho-S6 staining of pulmonary parenchyma, IAV+KGF vs IAV alone [1]: rapamycin-inhibitable increase in phospho-S6 staining
IAV replication in vitro (IAV): block IAV replication in vitro
KGF-induced IAV susceptibility of rat AECII (viral protein Western blot) (rat AECII): reduced
KGF-induced IAV susceptibility of rat AECII (viral protein Western blot) (rat AECII; listed as sirolimus): blocked KGF-induced IAV susceptibility
KGF-induced increase in lung tissue IL-6 (IL-6, TNFα, KC, MCP-1): blocked
KGF-induced increase in lung tissue IL-6 (IL-6, TNFα, KC, MCP-1; listed as Rapamycin): significant reduction of the KGF-induced increase
KGF-induced AECII proliferative response (Ki67) (AECII): diminished
KGF-induced AECII proliferative response (Ki67) (AECII; listed as Rapamycin): blocked the proliferative response to KGF

Source: patent US20200230115A1, “METHODS OF TREATING INFLUENZA-ASSOCIATED VIRAL PNEUMONIA” (priority 2017, published 2020)
